Source: article PMC8302244 (CPT: Pharmacometrics & Systems Pharmacology, 2021)

Experiments:
[1] = cited from earlier work
[2] = oral, patients; cited from earlier work
[3] = system: human cytochrome P450 3A4 (CYP3A4); conditions: human liver microsomes; cited from earlier work
[4] = Semimechanistic population PK model; conditions: for maximum increase in hepatic enzyme amount: maximum estimate for any subject in the enzyme compartment of the final model, Run 32, 75 mg dose
[5] = Predicted individual exposure metrics; conditions: for AUC(0-t) / Cmax: human, in vivo; for AUC(0-t): AUC0–24 Mean; for Cmax: Cmax Mean
[6] = final model Run 32, oral, patients with solid tumors
[7] = Besylate substudy—80 mg q.d., W1D1
[8] = 40 mg, Part 1—40 mg b.i.d., W3D4
[9] = 80 mg, Besylate substudy—80 mg q.d., W3D4

SMILES: CCNC(=O)C[C@@H]1N=C(c2ccc(Cl)cc2)c2cc(OC)ccc2-n2c(C)nnc21 [Molibresib]
- free fraction in plasma [1]: approximately 0.2
- terminal half‐life (t1/2) [2]: 3 to 7 h
- in vitro substrate of human CYP3A4 [3]: substrate
- Molibresib peripheral volume of distribution V2/F ([4]; final model Run 32): 17 L
- autoinduction ([4]; final model Run 32): weak to moderate
- Lagtime ALAG ([4]; final model Run 32, absorption lag): 0.132 h
- Molibresib absorption rate ka [4, 6]: 4.08 h⁻¹
- Molibresib clearance CL/F [4, 6]: 9.02 L/h
- Weight effect on V1/F and mV1/F ([4]; final model Run 32, power estimate of covariate effect): 0.717
- IIV on absorption rate ωka2 ([4]; final model Run 32, variance): 1.65
- Vd/F ([4]; human, in vivo): 53.1 L
- maximum increase in hepatic enzyme amount [4]: 2.1 fold
- maximum increase in hepatic enzyme amount ([4]; listed as molibresib): up to 2.1 fold
- Cmax Mean [5, 7]: 1160.0 ng/mL
- Cmin Mean [5, 7]: 22.2 ng/mL
- Cmin Mean ([5]; Besylate substudy—80 mg q.d., W3D4): 22.7 ng/mL
- AUC0–24 Mean ([5]; Part 1—40 mg b.i.d., W1D1): 2790 ng/mL
- Cmax Mean ([5]; Part 1—40 mg b.i.d., W1D1): 517.0 ng/mL
- Cmin Mean ([5]; Part 1—40 mg b.i.d., W1D1): 55.9 ng/mL
- Cmin Mean ([5]; Part 1—40 mg b.i.d., W3D4): 19.2 ng/mL
- AUC0–24 Mean ([5]; Part 1—60 mg q.d., W1D1): 3600 ng/mL
- Cmin Mean ([5]; Part 1—60 mg q.d., W1D1): 5.7 ng/mL
- AUC0–24 Mean ([5]; Part 1—60 mg q.d., W3D4): 3170 ng/mL
- Cmax Mean ([5]; Part 1—60 mg q.d., W3D4): 628.0 ng/mL
- Cmin Mean ([5]; Part 1—60 mg q.d., W3D4): 10.2 ng/mL
- AUC0–24 Mean ([5]; Part 1—80 mg q.d., W1D1): 5290 ng/mL
- Cmin Mean ([5]; Part 1—80 mg q.d., W1D1): 47.7 ng/mL
- Cmin Mean ([5]; Part 1—80 mg q.d., W3D4): 12.3 ng/mL
- AUC0–24 Mean ([5]; Part 1—100 mg q.d., W1D1): 5980 ng/mL
- Cmax Mean ([5]; Part 1—100 mg q.d., W1D1): 920.0 ng/mL
- Cmin Mean ([5]; Part 1—100 mg q.d., W1D1): 33.6 ng/mL
- AUC0–24 Mean ([5]; Part 1—100 mg q.d., W3D4): 5350 ng/mL
- Cmax Mean ([5]; Part 1—100 mg q.d., W3D4): 810.0 ng/mL
- Cmin Mean ([5]; Part 1—100 mg q.d., W3D4): 51.4 ng/mL
- AUC0–24 Mean ([5]; Part 2—75 mg q.d., W1D1): 5260 ng/mL
- Cmin Mean ([5]; Part 2—75 mg q.d., W1D1): 40.9 ng/mL
- Cmin Mean ([5]; Part 2—75 mg q.d., W3D4): 22.7 ng/mL
- AUC(0-t) [5, 8]: 3240 ng·h/mL
- Cmax [5, 8]: 457 ng/mL
- Cmax ([5]; 60 mg, Part 1—60 mg q.d., W1D1): 680 ng/mL
- AUC(0-t) ([5]; 75 mg, Part 2—75 mg q.d., W3D4): 4330 ng·h/mL
- Cmax ([5]; 75 mg, Part 2—75 mg q.d., W1D1): 935 ng/mL
- Cmax ([5]; 75 mg, Part 2—75 mg q.d., W3D4): 785 ng/mL
- AUC(0-t) ([5]; 80 mg, Besylate substudy—80 mg q.d., W1D1): 6610 ng·h/mL
- AUC(0-t) [5, 9]: 5470 ng·h/mL
- AUC(0-t) ([5]; 80 mg, Part 1—80 mg q.d., W3D4): 3500 ng·h/mL
- Cmax [5, 9]: 1060 ng/mL
- Cmax ([5]; 80 mg, Part 1—80 mg q.d., W1D1): 933 ng/mL
- Cmax ([5]; 80 mg, Part 1—80 mg q.d., W3D4): 775 ng/mL
